Source: PubChem BioAssay AID1259308 (NCATS, 2017)
In all, the deposit lists about 59,000 reagents; shown is a part drawn at random. In the full data, about 1,510 (2.6%) got an active call. 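Calls use total luciferase alone and ignore viability, so some active siRNAs may act by altering cell number.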 Reagents against one gene are numbered here. Not all columns of the deposit are shown.

- Test: 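Genes whose loss raises luciferase production in HEK293 cells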 (primary screen)
- Cells: human HEK293 embryonic kidney cells stably expressing firefly luciferase (HEK-CMV-Luc2-Hygro)
- Reagent: single siRNA against human genes, 0.8 pmol siRNA per well
- Duration: 72 h
- Measured: 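Reporter luminescence and viable-cell signal on separate replicate plates, given as percent of non-targeting control and median/MAD z-scores, plus per-cell luciferase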
- Direction: total luciferase, z-score and total luciferase, % of control: higher = more reporter protein produced; luciferase per cell, z-score: higher = more reporter output per viable cell
- Hit rule: 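Active when the median/MAD z-score for overall luciferase is greater than 3; a gene was taken forward for validation with new siRNAs if at least two of its three siRNAs passed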
- Calls: active = raised luciferase; inactive = no rise

| gene symbol | reagent | total luciferase, z-score | total luciferase, % of control | luciferase per cell, z-score | call |
| --- | --- | --- | --- | --- | --- |
| DENND5B | 1 | 4.88 | 179 | 3.67 | active |
| DENND5B | 2 | 3.32 | 148 | 2.59 | active |
| DENND5B | 3 | 0.253 | 86.9 | -0.237 | inactive |
| MYH10 | 1 | 0.554 | 92.9 | 0.628 | inactive |
| MYH10 | 2 | -0.436 | 73.2 | -0.533 | inactive |
| MYH10 | 3 | 0.864 | 99.1 | 1.26 | inactive |
| KLHL2P1 | 1 | -0.494 | 72.1 | 0.042 | inactive |
| KLHL2P1 | 2 | -0.841 | 65.2 | -0.421 | inactive |
| KLHL2P1 | 3 | 0.631 | 94.4 | 0.703 | inactive |
| ZDHHC20 | 1 | 0.832 | 98.4 | 1.3 | inactive |
| ZDHHC20 | 2 | 0.177 | 85.4 | 0.665 | inactive |
| ZDHHC20 | 3 | 0.113 | 84.1 | 0.469 | inactive |
| EFHC1 | 1 | -0.248 | 76.9 | 0.274 | inactive |
| EFHC1 | 2 | 0.00467 | 82 | -0.602 | inactive |
| EFHC1 | 3 | 0.671 | 95.2 | 0.25 | inactive |
| GMPR | 1 | 0.544 | 92.7 | 0.478 | inactive |
| GMPR | 2 | -1.49 | 52.3 | -1.49 | inactive |
| GMPR | 3 | 0.0122 | 82.1 | -0.328 | inactive |
| ANGEL2 | 1 | 2.3 | 128 | 3.71 | inactive |
| ANGEL2 | 2 | -0.0139 | 81.6 | -0.279 | inactive |
| ANGEL2 | 3 | -1.57 | 50.6 | -2.31 | inactive |
| COA8 | 1 | -0.787 | 66.2 | -0.22 | inactive |
| COA8 | 2 | -0.923 | 63.5 | -1.3 | inactive |
| COA8 | 3 | 3.4 | 149 | 2.42 | active |

Just “total luciferase, z-score”, for 2 of the entries above:
COA8 #2	-0.923
COA8 #3	3.4
